Measured values reported in article PMC12196045.

Molecular target: T1, OmpR-N6His (Xenorhabdus nematophila YL001) (UniProt D3VF01)
T1 sequence (looked up, limits assumed): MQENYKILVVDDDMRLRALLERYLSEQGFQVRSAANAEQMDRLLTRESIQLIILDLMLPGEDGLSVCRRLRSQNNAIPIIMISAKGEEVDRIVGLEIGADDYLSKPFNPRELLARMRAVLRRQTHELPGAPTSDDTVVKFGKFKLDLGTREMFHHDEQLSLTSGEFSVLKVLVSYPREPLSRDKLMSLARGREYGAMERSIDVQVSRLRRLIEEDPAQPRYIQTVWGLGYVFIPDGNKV
Test: EMSA
Settings: 10 mM Mg2+, EMSA: 5x buffer 250 mM Tris, 250 mM KCl, 0.5 mM DTT, 50 mM MgCl2, 25% glycerol, pH 8.0 (1x: 50 mM Tris, 50 mM KCl, 0.1 mM DTT, 10 mM MgCl2, 5% glycerol), recombinant protein, protein details: N-terminal His6 (pET28a NdeI/BamHI), probe letters rebuilt from the primers and the genome

Sequence | binding result (LPAP (lithium potassium acetyl phosphate) named in legend) | binding result (LPAP named in legend)
TTGTTATTACCTCATTGGTGTTATTTAGACACTTATGTTACTGCCAGAAACAGAACACTAAAAATTTTTGGAACTATTTTCGGGTATCGCGTGTCTTATTAATTGGCGACCAGTGTTCCATTGGTAATGAATTTTATCTACCCTCAAAATGCTACAAAAGTACAAAATCAGTAACAAAGTGAAAATAGATGTTTCAAAATGTAAATAACAGGGAACTTTTTTCGTTCAATTTCTATTGAAAAATGAAAAAAGCCAACTTTCGTCGGCTTTTCAGAGGATTAAATTTAGCTTATTTATTGAGCTGATTCA (double strand) [PopnP309] | binds | –
TACGTCTCGTAACGCTTCATTTTTTGTGTTCTTCTTTCTTAAAACTATATTGTTTTTTATTGCACTCATTCATTTTAATCGAGAAATTATCTGTATTTATGATTGTTTATCTTTTTACTTGTATGATGCAAGTGGAAATCTATTAATTATGACGCCAACTTAATTTATATTCTAATGTCAATAAAAATCACTATATAAATATATGGGAGTAATGAGCTTTTTGTGAAAAGCAATTAACCCATAGGTTATATTGATTTTTTCTGATGTTAATGTTTTGTCGATATTTTTAATTTTAAGTTAAATGGTTATGTATTTAATCGATTTCAATATGGAACACGACAGCAAGAAAATGACAAACTTACAATATTTATAACGAAAGTATGGAAATAATTGAATTTTGCTGACTCGATTTATGAATTACTTTTTACGTGTTTTTGAAACATGGCCATTTCATTAATATAAATTCGATGTTATCGGAACAGTATTGGGCATTTTTTACGATTATTACAATGAAACTCCTTAAACCTTGATAGTGAAATTGCATCAAGCATAGGTAGTGTCTGCTCTTCACCAAAACGAG (double strand) [PxcnA580] | – | no binding

Construct, isoform or probe ends are uncertain for at least one entry. A negative result means that nothing was seen under these conditions. Tags and fusion partners may be left off the protein sequences shown.
